# The other results are listed elsewhere or left out. Single values are uncertain, as repeats are few or missing.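 Imaging used 1,536-well plates; nuclei positive for cleaved PARP by antibody were divided by total DNA-stained nuclei to yield the apoptosis fraction. Doses for screening kept most cells viable, and cell lines differ markedly in resting and induced cleaved-PARP levels.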
# Tests used:
# Experiment in all cases: cleaved PARP positive nuclei fraction relative to DMSO control; melanoma cells; higher = more apoptosis
# Conditions in all cases: library dose: low library concentration; 72 h
# [1] = tested on: CBRC034 (line from a melanoma biopsy)
# [2] = tested on: COLO792
# [3] = tested on: COLO800
# [4] = tested on: COLO829
# [5] = tested on: G361
# [6] = tested on: IPC-298
# [7] = tested on: IST-MEL1
# [8] = tested on: LB2518-MEL
# [9] = tested on: LOXIMVI
# [10] = tested on: MEL-HO
# [11] = tested on: MZ2-MEL
# [12] = tested on: MeWo
# [13] = tested on: RPMI7951
# [14] = tested on: RVH-421
# [15] = tested on: SkMel28
# [16] = tested on: SkMel2
# [17] = tested on: SkMel30
# [18] = tested on: UACC62
SMILES,cleaved PARP positive nuclei fraction [1],cleaved PARP positive nuclei fraction [2],cleaved PARP positive nuclei fraction [3],cleaved PARP positive nuclei fraction [4],cleaved PARP positive nuclei fraction [5],cleaved PARP positive nuclei fraction [6],cleaved PARP positive nuclei fraction [7],cleaved PARP positive nuclei fraction [8],cleaved PARP positive nuclei fraction [9],cleaved PARP positive nuclei fraction [10],cleaved PARP positive nuclei fraction [11],cleaved PARP positive nuclei fraction [12],cleaved PARP positive nuclei fraction [13],cleaved PARP positive nuclei fraction [14],cleaved PARP positive nuclei fraction [15],cleaved PARP positive nuclei fraction [16],cleaved PARP positive nuclei fraction [17],cleaved PARP positive nuclei fraction [18]
"CCCCCCCCCCCCCCCCCCOP(=O)([O-])OC1CC[N+](C)(C)CC1 [Perifosine] + Nc1nc(F)nc2c1ncn2[C@@H]1O[C@H](CO)[C@@H](O)[C@@H]1O [fludarabine] (first compound 0.4 µM, partner dose 0.2 µM)",32.9%,135%,101%,101%,129%,58.3%,89.5%,53.6%,89.3%,156%,126%,740%,138%,61.2%,86.6%,761%,2790%,34.3%
"COc1cc([C@@H]2c3cc4c(cc3[C@@H](O[C@@H]3O[C@@H]5CO[C@@H](C)O[C@H]5[C@H](O)[C@H]3O)[C@H]3COC(=O)[C@H]23)OCO4)cc(OC)c1O [etoposide] + COc1ccc(Cl)c(Nc2nc3ccccc3nc2NS(=O)(=O)c2cccc(NC(=O)C(C)(C)N)c2)c1 [XL147] (first compound 0.02 µM, partner dose 0.8 µM)",98.7%,123%,101%,63.2%,133%,52.3%,73.2%,64.1%,176%,40.2%,84.9%,39.1%,59.5%,301%,102%,105%,44.1%,56.1%
"O=C(Nc1cc(C(F)(F)F)cc(C(F)(F)F)c1)c1cc(Cl)ccc1O + C=C(c1ccc(C(=O)O)cc1)c1cc2c(cc1C)C(C)(C)CCC2(C)C [Bexarotene] (first compound 0.016 µM, partner dose 2 µM)",79.2%,68.5%,102%,121%,150%,60%,63.6%,96.6%,118%,81.3%,108%,108%,126%,106%,134%,154%,117%,83.7%
"CCCCCCCCCCCCCCCCCCOP(=O)([O-])OC1CC[N+](C)(C)CC1 [Perifosine] + O=C(O)[C@@H]1[O][Sb](=[O])([O][Sb]2(=[O])[O][C@H]([C@H](O)CO)[C@H](O)[C@H](C(=O)O)[O]2)[O][C@H]([C@H](O)CO)[C@@H]1O [stibogluconate] (first compound 0.4 µM, partner dose 2 µM)",81.5%,96.7%,158%,83.8%,61.1%,42.3%,63.6%,350%,150%,281%,120%,41.9%,108%,70.9%,180%,82.2%,123%,115%
"O=C(Nc1cc(C(F)(F)F)cc(C(F)(F)F)c1)c1cc(Cl)ccc1O + CN(c1ncccc1CNc1nc(Nc2ccc3c(c2)CC(=O)N3)ncc1C(F)(F)F)S(C)(=O)=O [PF562271] (first compound 0.016 µM, partner dose 0.08 µM)",164%,89.5%,72.1%,100%,65.5%,41.4%,396%,92.5%,159%,43.9%,78.9%,167%,55.8%,109%,95.7%,124%,58.9%,234%
"Cc1ccc(Nc2nccc(N(C)c3ccc4c(C)n(C)nc4c3)n2)cc1S(N)(=O)=O [Pazopanib] + CC(C)C[C@H](NC(=O)[C@H](Cc1ccccc1)NC(=O)c1cnccn1)B(O)O [Bortezomib] (first compound 0.4 µM, partner dose 0.001 µM)",67.3%,120%,144%,181%,97%,34.1%,93.3%,120%,111%,24.8%,94.1%,138%,60%,81.9%,51.7%,76.7%,150%,305%
"O=C(/C=C/c1cccnc1)NCCCCC1CCN(C(=O)c2ccccc2)CC1 + CC(=O)c1c(C)c2cnc(Nc3ccc(N4CCNCC4)cn3)nc2n(C2CCCC2)c1=O [palbociclib] (first compound 0.01 µM, partner dose 0.04 µM)",1420%,325%,260%,234%,3430%,645%,104%,143%,70.4%,152%,779%,86.6%,239%,39.5%,166%,594%,238%,117%
"O=c1[nH]nc(Sc2ncc([N+](=O)[O-])s2)n1-c1ccc2c(c1)OCCO2 + O=C(O)c1ccc2c(c1)nc(Nc1cccc(Cl)c1)c1ccncc12 [CX4945] (first compound 0.2 µM, partner dose 0.4 µM)",218%,45.9%,60.9%,118%,145%,176%,55.9%,98.7%,185%,40.4%,213%,178%,32.3%,152%,73.2%,98.1%,73.2%,48.8%
"O=c1[nH]nc(Sc2ncc([N+](=O)[O-])s2)n1-c1ccc2c(c1)OCCO2 + COCC[n+]1c2c(n(Cc3cnccn3)c1C)C(=O)c1ccccc1C2=O [YM155] (first compound 0.2 µM, partner dose 0.0004 µM)",57.3%,105%,102%,164%,38.8%,90.9%,33.7%,125%,65.4%,86.2%,106%,201%,177%,42.7%,93.2%,118%,47%,304%
"Cc1cn(-c2cc(NC(=O)c3ccc(C)c(Nc4nccc(-c5cccnc5)n4)c3)cc(C(F)(F)F)c2)cn1 [nilotinib] + Cn1c(Nc2ccc(C(F)(F)F)cc2)nc2cc(Oc3ccnc(-c4ncc(C(F)(F)F)[nH]4)c3)ccc21 [CHIR265] (first compound 0.2 µM, partner dose 0.08 µM)",75.1%,116%,92.6%,95.1%,163%,186%,98%,327%,252%,30.6%,162%,146%,64.4%,167%,78.4%,158%,194%,500%
"Cc1cc(Nc2cc(N3CCN(C)CC3)nc(Sc3ccc(NC(=O)C4CC4)cc3)n2)n[nH]1 [Tozasertib] + O=C(O)[C@@H]1[O][Sb](=[O])([O][Sb]2(=[O])[O][C@H]([C@H](O)CO)[C@H](O)[C@H](C(=O)O)[O]2)[O][C@H]([C@H](O)CO)[C@@H]1O [stibogluconate] (first compound 0.006 µM, partner dose 2 µM)",88.5%,88.8%,102%,121%,107%,87.3%,58.7%,224%,42.5%,81.1%,64.8%,132%,59.4%,89.4%,28.6%,123%,63.5%,24.2%
"N#CC[C@H](C1CCCC1)n1cc(-c2ncnc3[nH]ccc23)cn1 [ruxolitinib] + COCC[n+]1c2c(n(Cc3cnccn3)c1C)C(=O)c1ccccc1C2=O [YM155] (first compound 1 µM, partner dose 0.0004 µM)",34.9%,85.2%,63.8%,94.5%,121%,47.2%,67.6%,120%,51.2%,34.8%,88.6%,298%,150%,133%,193%,125%,59.5%,260%
"Cc1cn(-c2cc(NC(=O)c3ccc(C)c(Nc4nccc(-c5cccnc5)n4)c3)cc(C(F)(F)F)c2)cn1 [nilotinib] + CN1CCN(c2ccc3nc(-c4c(N)c5c(F)cccc5[nH]c4=O)[nH]c3c2)CC1 [Dovitinib] (first compound 0.2 µM, partner dose 0.1 µM)",71%,55.1%,124%,107%,74.3%,81.2%,130%,47.9%,153%,75.3%,51.8%,37.6%,88.4%,92.7%,40.7%,73.4%,119%,37%
"O=c1[nH]nc(Sc2ncc([N+](=O)[O-])s2)n1-c1ccc2c(c1)OCCO2 + O=C(/C=C/c1cccnc1)NCCCCC1CCN(C(=O)c2ccccc2)CC1 [FK866] (first compound 0.2 µM, partner dose 0.01 µM)",1810%,213%,110%,66.5%,904%,593%,204%,33.5%,139%,470%,184%,130%,197%,137%,39.3%,443%,254%,167%
"COc1cc([C@@H]2c3cc4c(cc3[C@@H](O[C@@H]3O[C@@H]5CO[C@@H](C)O[C@H]5[C@H](O)[C@H]3O)[C@H]3COC(=O)[C@H]23)OCO4)cc(OC)c1O [etoposide] + CN1CCN(c2ccc3nc(-c4c(N)c5c(F)cccc5[nH]c4=O)[nH]c3c2)CC1 [Dovitinib] (first compound 0.02 µM, partner dose 0.1 µM)",138%,64.2%,119%,101%,94.6%,138%,124%,54.4%,34.4%,96.3%,36.4%,131%,201%,49.4%,86.1%,131%,17.7%,166%
"N#CC[C@H](C1CCCC1)n1cc(-c2ncnc3[nH]ccc23)cn1 [ruxolitinib] + O=C(O)[C@@H]1[O][Sb](=[O])([O][Sb]2(=[O])[O][C@H]([C@H](O)CO)[C@H](O)[C@H](C(=O)O)[O]2)[O][C@H]([C@H](O)CO)[C@@H]1O [stibogluconate] (first compound 1 µM, partner dose 2 µM)",124%,130%,74.2%,99.2%,135%,87.9%,68.4%,78.6%,163%,41.2%,74.2%,117%,145%,44.7%,136%,232%,74.7%,83.9%

# Quoted from the listing:
# cleaved PARP positive nuclei fraction [6], COc1cc([C@@H]2c3cc4c(cc3[C@@H](O[C@@H]3O[C@@H]5CO[C@@H](C)O[C@H]5[C@H](O)[C@H]3O)[C@H]3COC(=O)[C@H]23)OCO4)cc(OC)c1O [etoposide] + CN1CCN(c2ccc3nc(-c4c(N)c5c(F)cccc5[nH]c4=O)[nH]c3c2)CC1 [Dovitinib] (first compound 0.02 µM, partner dose 0.1 µM) reads 138%
# cleaved PARP positive nuclei fraction [9], N#CC[C@H](C1CCCC1)n1cc(-c2ncnc3[nH]ccc23)cn1 [ruxolitinib] + O=C(O)[C@@H]1[O][Sb](=[O])([O][Sb]2(=[O])[O][C@H]([C@H](O)CO)[C@H](O)[C@H](C(=O)O)[O]2)[O][C@H]([C@H](O)CO)[C@@H]1O [stibogluconate] (first compound 1 µM, partner dose 2 µM) reads 163%
